This data set concerns the target alpha-CTD (RNA polymerase alpha subunit C-terminal domain) (Bacillus licheniformis B1391) (UniProt Q65P79). Put plainly: EMSA. The note with it: 0.1-0.3 g/L protein; EMSA: 10 nM probe, 25 C 20 min; recombinant protein; residues 229-314; protein details: His-tag (pET-28a, stated fused at the 3' end); label: 5'-biotin (reverse primer); probe letters rebuilt from the primers and the genome. (In EMSA bound probe runs differently from free probe, usually more slowly.)

Chains of the proteins cited; added tags and fusions are not shown. Residues count along the entry.
UniProt Q65P79, 229-314: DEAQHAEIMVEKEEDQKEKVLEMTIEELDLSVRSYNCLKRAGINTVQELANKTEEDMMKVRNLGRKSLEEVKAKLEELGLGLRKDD

The exact form of at least one protein or probe is not confirmed.

Take “CATCTCAATTATACAAAGAAGGAAAGTTTATGTATAGATATTTTCGAATATTTAACTTATTGGACACAATAATTTTGAAATAGGGCATTTTGCACAAGAAATAATCCAAAATAGCCCAAAAATAATCCAACAATTCTAATTATTGTTATAATAATGCTGAGCTCCCAAAATTAATTAAGAGGTGAAGGAAA (double strand) [PLan promoter probe]”: the binding result was “binds”.

These data come from PMC9655642.
